Results are given in words; binding and its absence hold for the method and conditions named. Binding seen in cells or lysates may run through a third protein. Some binding calls cover weakened binding; strength is not graded here. For part of these data: Tags and fused reporters may be left off the sequences shown.
Key:
[1] = biological target: T1, WT mouse syndecan-4 (mSDC4) with a C-terminal Flag tag (mouse) (UniProt O35988); experiment: proximity ligation; HEK293T cells co-transfected with HA-tagged human PTPRS (WT or mutant) and Flag-tagged mouse SDC4 or Flag-tagged mouse PTPRS; fixed, permeabilised; anti-HA and anti-Flag primary antibodies, Duolink
T1 sequence: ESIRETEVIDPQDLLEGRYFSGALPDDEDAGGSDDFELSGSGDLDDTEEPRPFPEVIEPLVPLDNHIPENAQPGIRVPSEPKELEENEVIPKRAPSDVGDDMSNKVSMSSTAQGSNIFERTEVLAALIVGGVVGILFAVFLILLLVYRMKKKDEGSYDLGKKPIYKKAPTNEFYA

Amino acid sequences for entries named in this document (tags omitted). A change or cut given only in a name is not applied to a line headed by its entry. Chains listed by the source or under a name are the forms on record and can include a tag or linker. Residues count along the entry.
UniProt B0V2N1, residues 30-1907: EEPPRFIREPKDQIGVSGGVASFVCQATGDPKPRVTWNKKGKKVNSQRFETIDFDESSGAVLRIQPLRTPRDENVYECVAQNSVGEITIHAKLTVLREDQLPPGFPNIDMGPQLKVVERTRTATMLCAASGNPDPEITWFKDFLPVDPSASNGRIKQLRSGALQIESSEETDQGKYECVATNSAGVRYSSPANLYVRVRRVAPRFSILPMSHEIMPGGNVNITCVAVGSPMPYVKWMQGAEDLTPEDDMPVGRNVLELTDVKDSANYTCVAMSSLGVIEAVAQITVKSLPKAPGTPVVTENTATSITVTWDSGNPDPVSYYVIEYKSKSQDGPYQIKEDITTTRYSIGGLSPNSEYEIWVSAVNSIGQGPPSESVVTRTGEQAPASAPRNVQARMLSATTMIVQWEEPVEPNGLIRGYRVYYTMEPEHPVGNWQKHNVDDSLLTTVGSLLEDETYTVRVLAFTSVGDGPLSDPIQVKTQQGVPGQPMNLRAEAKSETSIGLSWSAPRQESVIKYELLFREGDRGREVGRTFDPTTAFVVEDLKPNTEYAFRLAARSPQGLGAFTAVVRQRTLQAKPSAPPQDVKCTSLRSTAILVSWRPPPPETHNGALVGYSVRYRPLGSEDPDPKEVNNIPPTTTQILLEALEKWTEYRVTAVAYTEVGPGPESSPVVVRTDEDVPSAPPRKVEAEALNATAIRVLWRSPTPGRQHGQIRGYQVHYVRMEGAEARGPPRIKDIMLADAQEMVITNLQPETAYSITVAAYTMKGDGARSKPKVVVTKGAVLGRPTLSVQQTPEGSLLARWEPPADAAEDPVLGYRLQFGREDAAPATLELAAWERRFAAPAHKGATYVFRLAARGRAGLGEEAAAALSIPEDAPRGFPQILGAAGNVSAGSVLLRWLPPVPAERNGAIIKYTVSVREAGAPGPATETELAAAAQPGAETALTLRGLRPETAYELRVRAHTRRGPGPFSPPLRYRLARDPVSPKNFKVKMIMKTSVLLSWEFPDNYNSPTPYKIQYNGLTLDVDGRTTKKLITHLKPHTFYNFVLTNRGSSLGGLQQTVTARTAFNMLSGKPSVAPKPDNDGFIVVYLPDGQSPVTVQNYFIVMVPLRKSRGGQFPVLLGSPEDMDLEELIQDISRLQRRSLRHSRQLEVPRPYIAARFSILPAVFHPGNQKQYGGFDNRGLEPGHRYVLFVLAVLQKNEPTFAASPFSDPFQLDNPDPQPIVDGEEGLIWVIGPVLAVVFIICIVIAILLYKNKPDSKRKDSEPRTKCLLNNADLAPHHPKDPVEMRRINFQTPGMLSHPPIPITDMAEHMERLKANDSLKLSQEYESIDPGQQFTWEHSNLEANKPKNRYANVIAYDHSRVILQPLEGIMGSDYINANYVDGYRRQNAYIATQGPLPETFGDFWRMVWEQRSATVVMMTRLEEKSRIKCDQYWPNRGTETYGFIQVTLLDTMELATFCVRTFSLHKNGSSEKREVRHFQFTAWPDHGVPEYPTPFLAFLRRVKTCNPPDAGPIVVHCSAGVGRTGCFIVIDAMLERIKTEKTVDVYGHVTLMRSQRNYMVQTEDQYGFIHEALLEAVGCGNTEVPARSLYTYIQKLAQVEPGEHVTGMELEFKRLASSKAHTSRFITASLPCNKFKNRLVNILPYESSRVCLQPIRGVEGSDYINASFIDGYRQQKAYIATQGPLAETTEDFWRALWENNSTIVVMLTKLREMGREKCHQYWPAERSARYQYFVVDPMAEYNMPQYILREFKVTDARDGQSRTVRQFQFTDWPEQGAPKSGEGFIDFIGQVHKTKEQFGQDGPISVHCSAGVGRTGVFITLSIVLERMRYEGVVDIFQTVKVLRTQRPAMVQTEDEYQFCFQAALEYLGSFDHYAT
WT human PTPRS (hPTPRS) isoform 1 with a C-terminal HA tag (Q13332, residues 30-1948): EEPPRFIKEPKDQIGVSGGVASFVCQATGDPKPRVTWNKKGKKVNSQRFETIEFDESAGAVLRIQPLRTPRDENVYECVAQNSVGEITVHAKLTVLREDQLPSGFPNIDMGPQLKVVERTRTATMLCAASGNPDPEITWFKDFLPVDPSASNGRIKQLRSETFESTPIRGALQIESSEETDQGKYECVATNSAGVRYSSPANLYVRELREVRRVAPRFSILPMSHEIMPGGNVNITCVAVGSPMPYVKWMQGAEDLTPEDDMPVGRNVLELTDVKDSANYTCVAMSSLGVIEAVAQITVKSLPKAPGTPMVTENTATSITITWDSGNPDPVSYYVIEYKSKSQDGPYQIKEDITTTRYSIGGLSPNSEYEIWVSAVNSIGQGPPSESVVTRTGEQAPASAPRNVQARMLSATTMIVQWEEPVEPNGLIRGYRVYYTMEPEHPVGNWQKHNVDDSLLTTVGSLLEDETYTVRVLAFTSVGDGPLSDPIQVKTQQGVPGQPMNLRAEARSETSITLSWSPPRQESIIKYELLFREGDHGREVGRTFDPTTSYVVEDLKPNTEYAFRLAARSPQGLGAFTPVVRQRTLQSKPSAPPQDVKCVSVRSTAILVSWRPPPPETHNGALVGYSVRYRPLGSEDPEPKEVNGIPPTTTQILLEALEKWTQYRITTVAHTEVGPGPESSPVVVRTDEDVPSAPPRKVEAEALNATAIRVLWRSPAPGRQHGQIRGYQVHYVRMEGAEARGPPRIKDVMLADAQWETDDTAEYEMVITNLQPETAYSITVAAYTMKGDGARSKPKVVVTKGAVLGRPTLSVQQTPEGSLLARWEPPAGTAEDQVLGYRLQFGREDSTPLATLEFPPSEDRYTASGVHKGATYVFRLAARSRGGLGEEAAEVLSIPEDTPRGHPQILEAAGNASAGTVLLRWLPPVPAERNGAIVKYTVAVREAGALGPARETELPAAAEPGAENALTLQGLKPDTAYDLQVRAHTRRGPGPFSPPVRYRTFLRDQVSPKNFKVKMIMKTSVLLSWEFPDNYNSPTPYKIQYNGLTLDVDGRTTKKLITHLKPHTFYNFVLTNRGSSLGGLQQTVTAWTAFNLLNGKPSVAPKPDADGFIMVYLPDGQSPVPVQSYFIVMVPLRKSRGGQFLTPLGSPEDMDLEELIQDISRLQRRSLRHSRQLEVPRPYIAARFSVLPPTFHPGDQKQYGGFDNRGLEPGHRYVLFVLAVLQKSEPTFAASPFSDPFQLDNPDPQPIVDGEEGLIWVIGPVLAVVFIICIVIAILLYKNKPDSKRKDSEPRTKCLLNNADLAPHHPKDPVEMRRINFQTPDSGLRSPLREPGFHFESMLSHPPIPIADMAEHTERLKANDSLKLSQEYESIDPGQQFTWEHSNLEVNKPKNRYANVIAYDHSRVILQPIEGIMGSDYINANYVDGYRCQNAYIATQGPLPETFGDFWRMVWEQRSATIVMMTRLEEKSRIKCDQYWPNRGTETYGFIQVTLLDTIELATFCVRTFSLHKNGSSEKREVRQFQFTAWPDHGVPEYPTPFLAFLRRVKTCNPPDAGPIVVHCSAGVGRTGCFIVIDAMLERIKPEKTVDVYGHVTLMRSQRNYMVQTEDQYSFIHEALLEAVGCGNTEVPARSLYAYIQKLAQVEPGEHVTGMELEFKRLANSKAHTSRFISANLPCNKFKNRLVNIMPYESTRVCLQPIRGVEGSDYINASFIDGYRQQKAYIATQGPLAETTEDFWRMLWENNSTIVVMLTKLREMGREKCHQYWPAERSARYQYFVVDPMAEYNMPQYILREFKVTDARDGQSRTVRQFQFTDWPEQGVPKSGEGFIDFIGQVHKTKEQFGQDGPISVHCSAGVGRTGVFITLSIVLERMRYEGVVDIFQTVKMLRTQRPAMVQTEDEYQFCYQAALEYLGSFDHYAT
hPTPRS Fn9mut (1146QSPVPVQ1152 mutated to GAAVAVA) with a C-terminal HA tag (Q13332, form named): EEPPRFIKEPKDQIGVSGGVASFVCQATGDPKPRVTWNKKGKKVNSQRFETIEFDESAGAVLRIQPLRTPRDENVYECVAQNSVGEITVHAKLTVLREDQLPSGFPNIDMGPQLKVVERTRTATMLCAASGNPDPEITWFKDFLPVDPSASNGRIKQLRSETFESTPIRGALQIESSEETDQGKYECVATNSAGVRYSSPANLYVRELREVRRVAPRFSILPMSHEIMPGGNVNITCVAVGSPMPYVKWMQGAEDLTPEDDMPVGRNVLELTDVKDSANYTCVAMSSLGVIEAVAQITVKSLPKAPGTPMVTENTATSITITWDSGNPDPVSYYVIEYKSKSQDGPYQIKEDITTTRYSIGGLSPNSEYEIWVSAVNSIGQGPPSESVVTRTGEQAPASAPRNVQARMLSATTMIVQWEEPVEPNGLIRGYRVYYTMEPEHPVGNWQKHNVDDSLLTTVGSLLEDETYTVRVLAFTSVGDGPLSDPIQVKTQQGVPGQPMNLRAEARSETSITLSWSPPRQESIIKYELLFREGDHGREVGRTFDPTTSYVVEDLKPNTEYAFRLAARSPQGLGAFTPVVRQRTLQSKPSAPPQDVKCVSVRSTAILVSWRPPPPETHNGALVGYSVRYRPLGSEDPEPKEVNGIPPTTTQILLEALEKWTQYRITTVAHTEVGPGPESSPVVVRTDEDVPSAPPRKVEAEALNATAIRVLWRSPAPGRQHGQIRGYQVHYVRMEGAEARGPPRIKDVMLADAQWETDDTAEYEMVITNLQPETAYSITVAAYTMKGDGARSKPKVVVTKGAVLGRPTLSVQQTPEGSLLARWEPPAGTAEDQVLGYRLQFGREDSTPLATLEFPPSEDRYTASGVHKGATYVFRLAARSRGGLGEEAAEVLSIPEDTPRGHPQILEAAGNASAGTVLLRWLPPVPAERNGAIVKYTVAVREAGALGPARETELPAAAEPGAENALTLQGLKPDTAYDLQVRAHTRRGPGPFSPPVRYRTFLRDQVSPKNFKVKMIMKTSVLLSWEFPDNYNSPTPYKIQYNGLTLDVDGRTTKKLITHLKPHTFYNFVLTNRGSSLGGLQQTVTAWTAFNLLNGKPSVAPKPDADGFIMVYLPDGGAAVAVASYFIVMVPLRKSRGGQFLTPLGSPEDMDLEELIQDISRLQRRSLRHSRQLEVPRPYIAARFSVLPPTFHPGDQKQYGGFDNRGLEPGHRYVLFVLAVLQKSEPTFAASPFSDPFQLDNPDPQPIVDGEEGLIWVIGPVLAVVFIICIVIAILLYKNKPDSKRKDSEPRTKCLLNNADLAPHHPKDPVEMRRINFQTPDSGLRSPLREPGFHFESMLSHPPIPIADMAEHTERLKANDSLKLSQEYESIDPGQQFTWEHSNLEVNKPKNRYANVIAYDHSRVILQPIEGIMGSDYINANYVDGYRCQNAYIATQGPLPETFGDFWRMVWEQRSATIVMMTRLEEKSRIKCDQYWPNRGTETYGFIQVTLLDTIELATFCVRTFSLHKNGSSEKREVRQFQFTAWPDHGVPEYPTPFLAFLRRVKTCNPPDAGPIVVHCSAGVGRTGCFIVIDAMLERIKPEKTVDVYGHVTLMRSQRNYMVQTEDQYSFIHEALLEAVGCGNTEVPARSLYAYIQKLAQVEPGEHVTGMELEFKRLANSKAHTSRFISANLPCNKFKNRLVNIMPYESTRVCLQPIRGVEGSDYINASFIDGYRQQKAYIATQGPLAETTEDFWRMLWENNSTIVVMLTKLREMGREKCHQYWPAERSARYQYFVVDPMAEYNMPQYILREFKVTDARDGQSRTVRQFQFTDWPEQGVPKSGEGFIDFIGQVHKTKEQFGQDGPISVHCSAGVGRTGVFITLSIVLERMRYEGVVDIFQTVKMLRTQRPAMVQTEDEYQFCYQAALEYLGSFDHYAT

[2] = biological target: WT mouse PTPRS (mPTPRS) with a C-terminal Flag tag (mouse) (UniProt B0V2N1); experiment: as above

| binding [1] | binding [2] | Substance |
| --- | --- | --- |
| binds | – | hPTPRS Fn9mut (1146QSPVPVQ1152 mutated to GAAVAVA) with a C-terminal HA tag (from UniProt Q13332 30-1948) (receptor) |
| binds | binds | WT human PTPRS (hPTPRS) isoform 1 with a C-terminal HA tag (from UniProt Q13332 30-1948) (receptor) |
